The target of the assay is T1, GST-TIP30 (full-length TIP30, GST fusion, bacterial) (rat) (UniProt B0BNF8).
T1 sequence: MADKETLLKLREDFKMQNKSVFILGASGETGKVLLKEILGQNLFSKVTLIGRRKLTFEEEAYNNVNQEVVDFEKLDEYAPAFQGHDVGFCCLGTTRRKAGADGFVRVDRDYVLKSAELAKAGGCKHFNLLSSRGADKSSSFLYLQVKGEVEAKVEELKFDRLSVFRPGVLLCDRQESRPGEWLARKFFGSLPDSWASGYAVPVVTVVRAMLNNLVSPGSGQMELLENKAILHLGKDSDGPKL
The assay is described as follows: pull-down; GST-TIP30 on glutathione agarose beads, His-tagged eEF1A1 mutants, Western blot.

These are yes or no findings as the source states them, for the method shown. In cells and extracts the contact can be indirect. Binding can be weak; no strength is given. Sequences can lack the tags named with a protein.

As for “His-tagged eEF1A1 mutant lacking domain one (rat) (domain or fragment)”, the binding result is “binds”.

As for “His-tagged eEF1A1 mutant lacking the middle domain (rat) (domain or fragment)”, the binding entry is “no binding”.

As for “His-tagged eEF1A1 mutant lacking domain three (rat) (domain or fragment)”, the binding result is on record as “binds”.
